Consider one molecule from patent US20250092151A1.

Amino acid sequences for entries named in this document (tags omitted). A change or cut given only in a name is not applied to a line headed by its entry.
UniProt Q14242: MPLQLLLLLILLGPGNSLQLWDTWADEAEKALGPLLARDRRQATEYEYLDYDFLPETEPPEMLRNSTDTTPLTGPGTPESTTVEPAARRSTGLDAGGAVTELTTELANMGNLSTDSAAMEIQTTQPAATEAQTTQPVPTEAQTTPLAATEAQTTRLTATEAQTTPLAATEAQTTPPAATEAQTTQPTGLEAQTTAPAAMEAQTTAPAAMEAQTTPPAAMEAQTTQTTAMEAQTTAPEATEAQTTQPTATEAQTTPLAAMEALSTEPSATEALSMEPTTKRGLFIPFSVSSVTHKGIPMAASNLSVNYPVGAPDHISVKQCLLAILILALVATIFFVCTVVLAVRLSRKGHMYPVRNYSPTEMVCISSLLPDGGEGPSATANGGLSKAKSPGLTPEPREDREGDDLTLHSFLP

The assay addresses human P-selectin glycoprotein ligand-1 (PSGL-1), expressed on Sp2/0-hPSGL-1 cells (human) (UniProt Q14242). Briefly: flow cytometry on Sp2/0-hPSGL-1 cells. On the technique in general: In flow cytometry, cells or beads pass a laser one at a time.

No constants are given. Whether binding was seen depends on the method and setting. Some binding calls cover weakened binding; strength is not graded here.

B1: h15A7H (antibody, IgG4, V domains shown)
VH: EVQLVESGGGLVQPGGSLRLSCAASGFTFSSFGMHWVRQAPGKGLEWVAYINGGSSTIFYANAVKGRFTISRDNAKNTLYLQMNSLRAEDTAVYYCARYASYGGGAMDYWGQGTLVTVSS
VL: DIQMTQSPSSLSASVGDRVTITCRSSQSIVHNDGNTYFEWYQQKPGKAPKLLIYKVSNRFSGVPSRFSGSGSGTHFTLTISSLQPEDFATYYCFQGSYVPLTFGQGTKVEIK
As to B1, the binding result was “binds”.
